Assay results: patent publication US20260194540A1 (ARIZONA BOARD OF REGENTS ON BEHALF OF ARIZONA STATE …, published 2026)
These are yes or no findings as the source states them, for the method shown. Some results given as binding are weak or reduced against the parent protein; the word gives no strength.

Amino acid sequences for entries named in this document (tags omitted).
UniProt Q13148: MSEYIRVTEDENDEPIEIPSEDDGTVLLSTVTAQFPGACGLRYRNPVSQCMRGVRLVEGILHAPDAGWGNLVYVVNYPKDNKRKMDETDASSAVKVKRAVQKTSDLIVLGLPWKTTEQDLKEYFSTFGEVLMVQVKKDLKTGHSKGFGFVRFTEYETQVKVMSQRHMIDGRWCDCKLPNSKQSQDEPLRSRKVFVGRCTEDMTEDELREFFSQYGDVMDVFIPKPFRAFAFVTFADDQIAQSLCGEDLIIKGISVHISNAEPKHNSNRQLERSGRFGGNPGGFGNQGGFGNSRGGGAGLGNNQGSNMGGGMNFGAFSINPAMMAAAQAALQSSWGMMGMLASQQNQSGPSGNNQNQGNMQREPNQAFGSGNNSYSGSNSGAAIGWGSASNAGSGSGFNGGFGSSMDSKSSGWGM

Target: TDP-43 associated with frontotemporal dementia (FTD), from FTD human brain tissue (human) (UniProt Q13148)
Assay: phage ELISA on human brain tissue

B1: TDP-43 monomer clone #5 (scFv)
scFv: MAEVQLLESGGGLVRPGGSLRLSCAASGFTFSSYAMSWVRQAPGKGLEWVSDIANTGDATGYADSVKGRFTISRDNSKNTLYLQMNSLRAEDTAVYYCAKTGAAFDYWGQGTLVTVSSGGGGSGGGGSGGGGSTDIQMTQSPSSLSASVGDRVTITCRASQSISSYLNWYQQKPGKAPKLLIYAASTLQSGVPSRFSGSGSGTDFTLTISSLQPEDFATYYCQQSSSDPATFGQGTKVEIKRAA
notes: Tested as scFv attached to a phage particle, tagged with a signal moiety when used for detection; also called monomer phage #5
binding: binds
